No constants are given. Whether binding was seen depends on the method and setting. In cells and extracts the contact can be indirect. Some binding calls cover weakened binding; strength is not graded here.
Molecular target: Bax (bovine (endogenous in primary bovine granulosa cells)) (UniProt O02703)
Assay: co-IP; Pierce Co-Immunoprecipitation Kit; endogenous proteins of primary bovine granulosa cells cultured in T75 bottles; cells treated with NEFA, or with NEFA and NAC

Protein sequences, listed by entry. Tags and fused reporters are not part of them.
UniProt O02703: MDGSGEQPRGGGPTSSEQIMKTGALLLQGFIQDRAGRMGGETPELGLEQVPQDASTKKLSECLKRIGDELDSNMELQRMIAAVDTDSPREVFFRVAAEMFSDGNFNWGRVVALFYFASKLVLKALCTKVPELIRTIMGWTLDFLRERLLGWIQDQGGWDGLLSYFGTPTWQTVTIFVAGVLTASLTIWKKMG
UniProt P67939: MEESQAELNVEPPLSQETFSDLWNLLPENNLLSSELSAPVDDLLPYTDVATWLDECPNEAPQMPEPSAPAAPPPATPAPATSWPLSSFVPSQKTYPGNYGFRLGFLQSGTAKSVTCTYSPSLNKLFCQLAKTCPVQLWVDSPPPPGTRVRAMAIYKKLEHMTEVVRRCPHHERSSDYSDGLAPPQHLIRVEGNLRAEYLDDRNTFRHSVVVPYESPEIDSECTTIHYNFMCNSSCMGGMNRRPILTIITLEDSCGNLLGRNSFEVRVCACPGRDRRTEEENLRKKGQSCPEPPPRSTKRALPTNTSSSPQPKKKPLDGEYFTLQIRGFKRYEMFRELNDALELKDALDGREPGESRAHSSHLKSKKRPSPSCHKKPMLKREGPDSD

- binding: binds
Substance: p53 (from UniProt P67939 1-386)

Reference: PMC7346109
